Assay results: US11679167B2, “Ophthalmic compositions, and ocular uses thereof, of indigo carmine” (priority 2018, dated 2023)
At least one structure is not confirmed: it was looked up by name or label, or the drawing left a doubt.

Key:
eye bank eyes = assay: Dye solution instilled by injection into the anterior chamber of eye bank eyes; staining and outflow seen by naked eye or operating microscope; design: species or system human
Text: After an incision is made into the anterior chamber of the eye, a small amount of aqueous humor is expressed and the dye solution is instilled by injection into the anterior chamber. The dye solution is typically left in place for 30 seconds, during which time it stains the anterior capsule of the lens. Excess dye solution is then expelled, usually using a viscoelastic device or flushed out with a balanced salt solution.
Dye solutions containing 0.004 wt. %, 0.04 wt. %, and 0.4 wt. % of Indigo Carmine (prepared by serial dilutions of a 0.4 wt. % Indigo Carmine solution provided by Micro-Tech (Nanjing) Co.) were instilled by injection into the anterior chamber of seven eye bank eyes following the dye solution instillation procedure detailed above.
Special imaging techniques were not required.

[1] = cited from earlier work

Row | SMILES | Diffusion of dye through tissues (eye bank eyes) | Appearance (egress) of dye in the outflow vessels after injection into the anterior chamber (eye bank eyes; human eye bank eyes, Indigo Carmine 0.004, 0.04 and 0.4 wt. %) | Acute and chronic toxicity [1]
1 | O=C1OC2(c3ccc(O)cc3Oc3cc(O)ccc32)c2ccccc21 [Fluorescein] | tends to diffuse through the tissues | not very useful in specifically detecting the drainage pathways | –
2 | O=C1C(=C2Nc3ccc(S(=O)(=O)[O-])cc3C2=O)Nc2ccc(S(=O)(=O)[O-])cc21.[Na+].[Na+] [Indigo Carmine, 5,5′-indigodisulfonic acid sodium salt] | – | – | very low rate of both acute and chronic toxicity
